Laboratory results published in publication PMC7718083.
These are yes or no findings as the source states them, for the method shown. Some results given as binding are weak or reduced against the parent protein; the word gives no strength. Each block holds one binder with its values, some of them ahead of it.

Experiments:
[1] = target: T1, Peroxiredoxin 1 (mouse (endogenous in C2C12 myotubes and mouse muscle)), P35700; experiment: non-reducing SDS-PAGE with immunoblot; lysates of isolated FDB muscle fibers of adult and old mice, quiescent, electrically stimulated to contract for up to 15 min, or rested afterwards; 75 mM MMTS before and during lysis; 15% non-reducing gel; monomer and disulphide-linked dimer bands; conditions: remark: other sources report otherwise
T1 chain: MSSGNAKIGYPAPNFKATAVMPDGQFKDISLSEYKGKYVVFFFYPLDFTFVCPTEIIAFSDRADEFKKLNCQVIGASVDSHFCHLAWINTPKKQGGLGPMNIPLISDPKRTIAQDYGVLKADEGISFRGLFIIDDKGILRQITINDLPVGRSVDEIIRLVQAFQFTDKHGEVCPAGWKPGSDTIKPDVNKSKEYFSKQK

[2] = target: T1, Peroxiredoxin 1 (mouse (endogenous in …)); experiment: non-reducing SDS-PAGE with immunoblot; lysates of C2C12 myotubes (untreated or treated with 2.5-250 uM H2O2; in the test of alkylating agents also slices of mouse gastrocnemius muscle), alkylated (NEM, IAA or MMTS; then 75 mM MMTS) before and during lysis in RIPA buffer; 15% non-reducing gel; monomer band 20-25 kDa, disulphide-linked dimer band 35-50 kDa; conditions: remark: other sources report otherwise
[3] = target: Peroxiredoxin 3 (mouse (endogenous in C2C12 myotubes and mouse muscle)) (UniProt P20108); experiment: as above
[4] = target: Peroxiredoxin 3 (mouse (endogenous in C2C12 myotubes and mouse muscle)) (UniProt P20108); experiment: non-reducing SDS-PAGE with immunoblot; lysates of isolated FDB muscle fibers of adult and old mice, quiescent, electrically stimulated to contract for up to 15 min, or rested afterwards; 75 mM MMTS before and during lysis; 15% non-reducing gel; monomer and disulphide-linked dimer bands
[5] = target: T2, Peroxiredoxin 2 (mouse (endogenous in C2C12 myotubes and mouse muscle)), Q61171; experiment: as above; conditions: remark: other sources report otherwise
T2 chain: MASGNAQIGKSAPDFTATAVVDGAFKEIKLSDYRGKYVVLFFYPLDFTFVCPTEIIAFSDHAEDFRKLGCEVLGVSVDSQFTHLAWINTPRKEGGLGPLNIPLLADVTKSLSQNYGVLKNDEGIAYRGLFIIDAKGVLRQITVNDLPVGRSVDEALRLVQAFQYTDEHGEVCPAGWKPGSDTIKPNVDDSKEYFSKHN

[6] = target: T2, Peroxiredoxin 2 (mouse (endogenous in …)); experiment: non-reducing SDS-PAGE with immunoblot; lysates of C2C12 myotubes (untreated or treated with 2.5-250 uM H2O2; in the test of alkylating agents also slices of mouse gastrocnemius muscle), alkylated (NEM, IAA or MMTS; then 75 mM MMTS) before and during lysis in RIPA buffer; 15% non-reducing gel; monomer band 20-25 kDa, disulphide-linked dimer band 35-50 kDa; conditions: remark: other sources report otherwise

- binding [1]: binds
- binding [2]: binds
B1: Peroxiredoxin 1, P35700 1-199 (protein)
chain: MSSGNAKIGYPAPNFKATAVMPDGQFKDISLSEYKGKYVVFFFYPLDFTFVCPTEIIAFSDRADEFKKLNCQVIGASVDSHFCHLAWINTPKKQGGLGPMNIPLISDPKRTIAQDYGVLKADEGISFRGLFIIDDKGILRQITINDLPVGRSVDEIIRLVQAFQFTDKHGEVCPAGWKPGSDTIKPDVNKSKEYFSKQK

- binding [3]: binds
- binding [4]: binds
B2: Peroxiredoxin 3 (protein, UniProt P20108 63-257)
chain: TPAVTQHAPYFKGTAVVNGEFKELSLDDFKGKYLVLFFYPLDFTFVCPTEIVAFSDKANEFHDVNCEVVAVSVDSHFSHLAWINTPRKNGGLGHMNITLLSDITKQISRDYGVLLESAGIALRGLFIIDPNGVVKHLSVNDLPVGRSVEETLRLVKAFQFVETHGEVCPANWTPESPTIKPSPTASKEYFEKVHQ

- binding [5]: binds
- binding [6]: binds
B3: Peroxiredoxin 2, Q61171 1-198 (protein)
chain: MASGNAQIGKSAPDFTATAVVDGAFKEIKLSDYRGKYVVLFFYPLDFTFVCPTEIIAFSDHAEDFRKLGCEVLGVSVDSQFTHLAWINTPRKEGGLGPLNIPLLADVTKSLSQNYGVLKNDEGIAYRGLFIIDAKGVLRQITVNDLPVGRSVDEALRLVQAFQYTDEHGEVCPAGWKPGSDTIKPNVDDSKEYFSKHN
